IC50 data for 1 molecule are collected here from publication PMC6411751, “Use of machine learning to identify novel, behaviorally active antagonists of the insect odorant receptor co-receptor (Orco) subunit” (Scientific Reports, 2019).

Chains of the proteins cited; added tags and fusions are not shown.
UniProt Q7QCC7, whole entry: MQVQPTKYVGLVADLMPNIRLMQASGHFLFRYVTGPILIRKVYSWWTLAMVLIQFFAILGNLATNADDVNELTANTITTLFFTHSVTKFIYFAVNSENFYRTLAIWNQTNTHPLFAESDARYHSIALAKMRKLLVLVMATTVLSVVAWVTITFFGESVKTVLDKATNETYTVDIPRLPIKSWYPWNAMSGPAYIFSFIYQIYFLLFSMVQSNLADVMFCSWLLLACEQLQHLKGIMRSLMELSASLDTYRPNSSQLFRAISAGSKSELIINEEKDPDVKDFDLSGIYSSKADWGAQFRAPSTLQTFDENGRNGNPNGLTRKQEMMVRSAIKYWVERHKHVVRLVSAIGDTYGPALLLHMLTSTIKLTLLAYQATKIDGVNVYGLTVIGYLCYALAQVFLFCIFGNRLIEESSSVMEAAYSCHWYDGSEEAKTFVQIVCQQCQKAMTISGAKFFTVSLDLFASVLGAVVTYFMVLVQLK

The target in this assay is Agam\Orco (Anopheles gambiae, UniProt Q7QCC7). The note with it: Table S1; training actives; Agam\Orco activated by 30 µM OLC12; mean ± SEM (n = 3-8).

Structures are written as SMILES. Structures were worked out from names or drawings and are uncertain.

For the molecule `CCc1ccc(NC(=O)CSc2nnc(-c3ccccn3)n2CC)cc1`, the concentration for half-maximal inhibition (IC50) stood at 45 µM.
